These results are taken from PMC5443761.

Sequences of proteins named here, by UniProt entry; tags and fusion partners are left off. Residues count along the entry.
UniProt P05107, residues 23-769: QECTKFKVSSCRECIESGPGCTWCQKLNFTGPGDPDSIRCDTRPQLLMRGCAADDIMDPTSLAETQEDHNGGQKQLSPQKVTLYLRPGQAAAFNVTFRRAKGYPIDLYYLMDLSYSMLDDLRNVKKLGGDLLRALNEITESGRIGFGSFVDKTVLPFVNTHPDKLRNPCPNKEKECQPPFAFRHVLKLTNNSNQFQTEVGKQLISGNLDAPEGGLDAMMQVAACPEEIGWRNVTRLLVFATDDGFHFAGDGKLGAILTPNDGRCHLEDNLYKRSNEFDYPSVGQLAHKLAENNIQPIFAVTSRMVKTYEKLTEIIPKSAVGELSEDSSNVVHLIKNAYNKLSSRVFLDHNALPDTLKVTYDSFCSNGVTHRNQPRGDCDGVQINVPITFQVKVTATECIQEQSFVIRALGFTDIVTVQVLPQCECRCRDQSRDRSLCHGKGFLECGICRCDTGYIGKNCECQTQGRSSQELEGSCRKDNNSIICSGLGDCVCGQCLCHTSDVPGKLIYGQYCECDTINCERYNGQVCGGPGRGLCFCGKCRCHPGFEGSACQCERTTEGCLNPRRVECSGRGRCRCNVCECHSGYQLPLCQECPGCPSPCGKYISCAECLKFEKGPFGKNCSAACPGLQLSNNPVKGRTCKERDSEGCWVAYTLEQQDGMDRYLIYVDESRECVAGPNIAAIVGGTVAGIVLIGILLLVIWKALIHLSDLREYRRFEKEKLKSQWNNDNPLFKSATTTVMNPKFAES
UniProt Q15389, residues 16-498: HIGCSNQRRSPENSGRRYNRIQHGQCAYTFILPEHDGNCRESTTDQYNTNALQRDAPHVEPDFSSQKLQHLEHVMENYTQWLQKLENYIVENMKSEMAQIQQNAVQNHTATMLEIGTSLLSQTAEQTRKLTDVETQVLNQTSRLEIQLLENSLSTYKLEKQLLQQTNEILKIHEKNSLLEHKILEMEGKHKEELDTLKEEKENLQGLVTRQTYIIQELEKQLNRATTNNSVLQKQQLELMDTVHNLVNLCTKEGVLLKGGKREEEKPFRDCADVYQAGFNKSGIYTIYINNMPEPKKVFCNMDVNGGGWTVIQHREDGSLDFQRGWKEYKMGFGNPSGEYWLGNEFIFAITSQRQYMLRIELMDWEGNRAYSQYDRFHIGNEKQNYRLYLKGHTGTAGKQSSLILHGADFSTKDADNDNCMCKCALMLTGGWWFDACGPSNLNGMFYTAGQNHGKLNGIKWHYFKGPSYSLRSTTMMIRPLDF

The assay deals with CD18 (β2 integrin) on human neutrophils (human (endogenous in human neutrophils)) (UniProt P05107). Kind of assay: co-IP + cross-linking; isolated human neutrophils treated with rhAng-1 (0.7 µg/10^6 neutrophils) or PBS and the extracellular cross-linker DTSSP; lysed (0.3% CHAPS buffer); immunoprecipitated overnight at 4 °C with anti-CD18 IgG on protein G-Sepharose; immunoblot with anti-CD18 and anti-angiopoietin-1; only the binder purified. For orientation: In western blotting, separated proteins are transferred to a membrane and probed.

These are yes or no findings as the source states them, for the method shown. Binding seen in cells or lysates may run through a third protein. Some binding calls cover weakened binding; strength is not graded here.

For “recombinant human angiopoietin-1 (from UniProt Q15389 16-498) (ligand)”, the binding entry is listed as “binds weakly”.
